31 compounds from the supplement of paper PMC12889115 can be followed below.

For this test, the system named is Salmonella enterica serovar Typhimurium SL1344. The test can be described thus: bacterial growth OD600 after 18 h with compound and polymyxin B; higher = more bacterial growth (less inhibition). As to conditions: 50 µM, Mueller-Hinton broth.

The other results are listed elsewhere or left out. Values are raw readings; no control value is given beside them.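 Primary screen: polymyxin B was added at a level permeabilizing Salmonella outer membranes while sparing inner membranes. DMSO wells, both with and without polymyxin B, established maximum growth. Plate-to-plate variation meant each plate was ranked on its own, and the lowest-OD600 compounds were selected as hits.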

For the compound `CN(CCC1CCOCC1)C(=O)c1csc2nc(-c3cccc(F)c3)cn12`, the “bacterial growth OD600” value (polymyxin B 0.75 µg/mL) was determined as 0.767. Take `CCn1cc(C(=O)NCc2cccnc2N(C)Cc2ccccc2)cn1`: the “bacterial growth OD600” value (polymyxin B 1 µg/mL) was found to be 0.804.

Regarding `Cn1cc(CN2CCc3[nH]nc(C(c4ccccc4)c4ccccc4)c3C2)cn1`, the “bacterial growth OD600” value (polymyxin B 0.75 µg/mL) is 0.7. For `CCC1CN(CCNC(=O)c2ccc(C)cc2)Cc2cc(OC)ccc2O1` (stereo unspecified), where the note is “polymyxin B 0.75 µg/mL”, the “bacterial growth OD600” value is 0.896. On the same count and under the same terms, as for `CC#CCN1C(=O)NC(CCc2ccccc2)(C2CCN(C/C=C/c3ccccc3)CC2)C1=O` (stereo unspecified), the figure is 0.739. Take `CSc1ccc(C(=O)NCC2CC(Cc3ccc(F)cc3)=NO2)cc1` (stereo unspecified): the “bacterial growth OD600” value (polymyxin B 0.75 µg/mL) was 0.707.

As for `COCc1noc(-c2ccc(N(C)CCn3ccnc3C)nc2)n1`, where the note is “polymyxin B 0.75 µg/mL”, the “bacterial growth OD600” value is 0.855. Still for that read-out and setting: as for `CCCc1cc(CN(C)C(=O)Cn2nnnc2CN2CCC(C)CC2)n[nH]1`, the figure is 0.79; as for `O=C(Cn1cccn1)N1CCC(n2c(-c3ccc4c(c3)OCO4)nc3cc(C(F)(F)F)ccc32)CC1`, 0.819; as for `COc1ccc(CCC2CCCN(C(=O)c3ccoc3)C2)cc1` (stereo unspecified), 0.588.

For `Cc1ccccc1CC(C1CCN(C(=O)CCCc2ccccc2)CC1)N(C)C(=O)Cn1cccn1` (stereo unspecified), the “bacterial growth OD600” value (polymyxin B 0.75 µg/mL) turned out to be 0.846. For the compound `CCOC(=O)C1(Cc2ccccc2F)CCCN(C(=O)CC(C)C)C1` (stereo unspecified), the “bacterial growth OD600” value (polymyxin B 1 µg/mL) amounted to 0.644. On the same count and under the same terms, the figure for `CC(=O)c1cccc(CN2CCCC(CNC(=O)c3cccs3)C2)c1` (stereo unspecified) is 0.885; for `Cc1ccc(CN(C)C(=O)C2(N3C[C@@H](C)O[C@@H](C)C3)Cc3ccccc3C2)o1` it is 1.08. For `O=C(Cc1ccncc1)N1CCC(C2CCN(c3ncccn3)CC2)C1` (stereo unspecified), the “bacterial growth OD600” value (polymyxin B 0.75 µg/mL) came to 0.966. The same measure, in the same setting: as for `CC(=O)N[C@@H]1c2ccccc2C2(CCN(C(=O)c3ccc4cc[nH]c4c3)CC2)[C@H]1OCc1ccccc1`, the figure is 0.528; as for `COc1ccc(CNC(=O)CCC2(Cc3ccc(Cl)cc3)CCC(=O)N2)cc1` (stereo unspecified), 1; as for `COc1cccc(-c2cnc(C(F)(F)F)nc2C2CCN(C(=O)CCn3ccc(C)n3)CC2)c1`, 0.74.

Turning to `CC(=O)c1cc(CN2CCCC(C(=O)Nc3ccc(-c4cscn4)cc3)C2)cs1` (stereo unspecified), the “bacterial growth OD600” value (polymyxin B 1 µg/mL) was determined as 0.876.

Regarding `CC(Cn1cccn1)C(=O)N1CCc2[nH]nc(-c3ccc4c(c3)OCO4)c2C1` (stereo unspecified), the “bacterial growth OD600” value (polymyxin B 0.75 µg/mL) turned out to be 0.943. Turning to `NC(=O)[C@@H]1CCCN1C(=O)CC1(c2ccccc2)CC(=O)N(CCCOc2cccnc2)C1=O` (stereo partly specified), the “bacterial growth OD600” value (polymyxin B 0.75 µg/mL) is 0.806. `CSCC(=O)N1CCCC(C(=O)Nc2cccc(-c3cccc(C)c3)c2)C1` (stereo unspecified): the “bacterial growth OD600” value (polymyxin B 1 µg/mL) was determined as 0.016. Take `COc1ccc(C(=O)N2CCCC2)c(OC2CCN(CC=C(C)C)CC2)c1`: the “bacterial growth OD600” value (polymyxin B 0.75 µg/mL) is 0.8. On to `CC1(C)Cc2nc(N3CCOCC3)ncc2C(NC(=O)Nc2ccccc2)C1` (stereo unspecified), for which the “bacterial growth OD600” value (polymyxin B 0.75 µg/mL) was found to be 0.857. Same read-out and setting: the figure for `Cc1cccc(C2c3[nH]c4ccccc4c3CCN2CCCn2cccn2)n1` (stereo unspecified) is 0.833. For `O=C(CC(c1ccccc1)c1cccc(Cl)c1)NCCN1CCOC1=O` (stereo unspecified), the “bacterial growth OD600” value (polymyxin B 1 µg/mL) turned out to be 0.949. `CC1CN(CCC(=O)N2CCC(N3C[C@@H](C)O[C@@H](C)C3)CC2)Cc2cc(Cl)ccc2O1` (stereo partly specified): where the note is “polymyxin B 0.75 µg/mL”, the “bacterial growth OD600” value came out at 0.83. Same read-out and setting: the figure for `CCC(=O)N1CCCC(CCc2ccc(F)c(F)c2)C1` (stereo unspecified) is 0.561; for `CC(=O)c1ccc(C(=O)N2CCOc3ccc(C(C)(O)CN(C)C)cc3C2)cc1` (stereo unspecified) it is 1.01.

On to `COCCC(=O)Nc1cc(C(=O)N2CCCCC2c2cccnc2)cc2nc(-c3ccccc3)n(C)c12` (stereo unspecified), for which the “bacterial growth OD600” value (polymyxin B 0.75 µg/mL) was found to be 0.803. With `CC(C)N(Cc1nccn1C)C(=O)Cn1nnnc1CN1C[C@@H](C)O[C@@H](C)C1`, the “bacterial growth OD600” value (polymyxin B 0.75 µg/mL) came to 0.837.
